Measured data: PubChem BioAssay AID1159593 (NIAID, 2016)
In all, the deposit lists 756 reagents; this is a part drawn at random. 137 of them (18%) were called active. 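Active means p65 translocation went either up or down; genes were judged on the median of six siRNAs, not single siRNAs.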 Unmarked entries are inactive. The numbers tell different reagents against one gene apart. Not stated in the record: the amount of reagent.

Purpose: 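Knock-downs that alter LPS-induced nuclear entry of p65 in mouse macrophages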
System: RAW264.7 macrophages of mouse, with reporters for p65 (GFP) and the Tnf promoter (mCherry)
Reagents: single siRNA against mouse genes
Time to read-out: 48 to 72 hours after siRNA transfection, then LPS for 40 min
Conditions: LPS (Salmonella minnesota R595) for 40 min before fixation; dose not given
Measurement: 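Imaged nuclear over cytoplasmic GFP-p65 intensity after 40 min LPS, normalised per plate by median and MAD, robust z-score versus negative controls, mean of replicates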
Reading the numbers: p65 translocation z-score: higher = more nuclear NF-kappaB p65 after LPS
Active means: 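z scored in tiers by size in both directions (1, 1.5, 2, 2.5); stated active cut-off missing, but called actives lie near absolute z 1.5 or above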
Calls: active = changed p65 translocation (either direction); inactive = no clear change

no.	gene	reagent	p65 translocation z-score
1	Tlr7 (GeneID 170743)	1	-0.709
2	Tlr7 (GeneID 170743)	2	-2.6 (active)
3	Tlr7 (GeneID 170743)	3	1.03
4	Tlr7 (GeneID 170743)	4	-0.51
5	Tlr7 (GeneID 170743)	5	0.601
6	Tlr7 (GeneID 170743)	6	0.288
7	Tlr5 (GeneID 53791)	1	-0.596
8	Tlr5 (GeneID 53791)	2	0.451
9	Tlr5 (GeneID 53791)	3	0.429
10	Tlr5 (GeneID 53791)	4	-0.965
11	Tlr5 (GeneID 53791)	5	1.17
12	Tlr5 (GeneID 53791)	6	0.358
13	Nfkbie (GeneID 18037)	1	-1.98 (active)
14	Nfkbie (GeneID 18037)	2	-0.603
15	Nfkbie (GeneID 18037)	3	-0.964
16	Nfkbie (GeneID 18037)	4	-1.54 (active)
17	Nfkbie (GeneID 18037)	5	-1.62 (active)
18	Nfkbie (GeneID 18037)	6	-0.624
19	Ly96 (GeneID 17087)	1	-0.422
20	Ly96 (GeneID 17087)	2	-2.92 (active)
21	Ly96 (GeneID 17087)	3	-0.838
22	Ly96 (GeneID 17087)	4	-2.28 (active)
23	Ly96 (GeneID 17087)	5	-0.619
24	Ly96 (GeneID 17087)	6	-1.1
25	Il1rl1 (GeneID 17082)	1	-0.421
26	Il1rl1 (GeneID 17082)	2	-1.24
27	Il1rl1 (GeneID 17082)	3	-0.846
28	Il1rl1 (GeneID 17082)	4	-1.28
29	Il1rl1 (GeneID 17082)	5	-1.7 (active)
30	Il1rl1 (GeneID 17082)	6	-1.29
31	Atf7 (GeneID 223922)	1	-1.43
32	Atf7 (GeneID 223922)	2	-0.582
33	Atf7 (GeneID 223922)	3	-0.128
34	Atf7 (GeneID 223922)	4	-0.35
35	Atf7 (GeneID 223922)	5	0.338
36	Atf7 (GeneID 223922)	6	-0.846
37	Mapk14 (GeneID 26416)	1	1.62 (active)
38	Mapk14 (GeneID 26416)	2	0.63
39	Mapk14 (GeneID 26416)	3	0.544
40	Mapk14 (GeneID 26416)	4	-0.842
41	Mapk14 (GeneID 26416)	5	-0.931
42	Mapk14 (GeneID 26416)	6	2.95 (active)
43	Mapk8 (GeneID 26419)	1	1.17
44	Mapk8 (GeneID 26419)	2	-0.509
45	Mapk8 (GeneID 26419)	3	0.156
46	Mapk8 (GeneID 26419)	4	-0.351
47	Mapk8 (GeneID 26419)	5	-0.899
48	Mapk8 (GeneID 26419)	6	-0.891
